Data taken from PubChem BioAssay AID540256 (National Center for Advancing Translational Sciences (NCATS), 2011).
In all, about 300,000 compounds went through this assay and about 3,700 (1.2%) were called active. The inconclusive results got no clear call from the source; some entries with a clear call stand among them for comparison. The call rests on the fitted dose curve; tested in HEK293 cells. A potency beside an inconclusive call is a rough fit, not a confirmed value.

experiment: qHTS for Inhibitors of binding or entry into cells for Lassa Virus; details: Lassa virus pseudotype entry inhibition, cell reporter; activity change, negative = inhibition: at 37.9 µM (top of the series) unless noted; further: nearly all actives have a fitted effect of over 50% in size
On the % scale 0 is the no-effect control and ±100 the full control effect; potency means the concentration at half of the fitted maximal effect.

Structure (SMILES)	activity change, negative = inhibition	Potency
COc1ccc(OC)c(NC(=O)CSC2=Nc3ccccc3C3=NC(CCC(=O)NCCc4ccccc4)C(=O)N23)c1 (stereo not given)	inactive: -6.6% [at 46.1 µM]	
O=C(/C=C/C=C/c1ccccc1)CC1(O)C(=O)Nc2ccccc21 (stereo not given)		inconclusive: 3.55 µM [inhibitor, single point]
CCc1ccc(N2C(=O)N(CC(=O)C(C)(C)C)c3ccccc3S2(=O)=O)cc1	inactive: 29.3% [at 46.1 µM]	
O=C(NCCC1=CCCCC1)c1ccc2c(c1)N(Cc1ccc(Cl)cc1)C(=O)c1ccccc1S2(=O)=O		inconclusive: 6.31 µM [inhibitor, full curve]
Cc1ccc(C2=NNC(C(O)C(O)C(O)CO)S2)cc1 (stereo not given)	inactive: 6.78%	
CCCC(=O)NC(c1ccc(Cl)cc1)c1ccc2cccnc2c1O (stereo not given)		active: 3.98 µM
CC(=O)c1cc(-c2ccccc2)n(CCC(=O)NC2CCCCCC2)c1C		inconclusive: 3.16 µM [inhibitor, single point]
COc1ccccc1CNCC(=O)Nc1cc(S(=O)(=O)N2CCCCCC2)ccc1Cl	inactive: -23.3%	
Cc1cccc(Nc2nc(-c3ccc(F)c(C)c3)cs2)n1		inconclusive: 5.62 µM [activator, single point]
Cc1cccc(C(=O)Nc2nnc(-c3ccc(C(C)(C)C)cc3)s2)c1		inconclusive: 31.6 µM [inhibitor, single point]
CCOc1ccc2[nH]c3c(N4CCC5(CC4)OCCO5)ncnc3c2c1		inconclusive: 10 µM [inhibitor, partial curve, poor fit]
O=P(OC1CCCCC1)(OC1CCCCC1)C(O)c1c(Cl)cccc1Cl (stereo not given)		inconclusive: 32.6 µM [inhibitor, single point]
CC(=O)Nc1ccc(NC(=O)CCc2c(C)nc3c(c(C)nn3-c3ccccc3)c2C)cc1		inconclusive: 12.6 µM [activator, partial curve, poor fit]
CCN(CC(=O)Nc1cccc(S(=O)(=O)N2CCCCC2)c1)Cc1ccccc1		inconclusive: 35.5 µM [inhibitor, single point]
CCCCOc1ccc(C(=O)Nc2nc3c(s2)CC(C)CC3)cc1 (stereo not given)	inactive: 29% [at 46.1 µM]	
CCCc1cc(=O)[nH]c(Nc2ccc(C)c(O)c2)n1	inactive: 4.05% [at 46.1 µM]	
CC1(C)Cc2ccccc2-c2nc(-c3ccccc3)oc(=O)c21	inactive: -21.6%	
COCCNC(=O)c1ccc2c(c1)N(Cc1c(F)cccc1Cl)C(=O)c1ccccc1S2		inconclusive: 12.6 µM [inhibitor, single point]
Cc1noc(/C=C/c2ccco2)c1S(=O)(=O)N1CCC(C(=O)N2CCc3ccccc3C2)CC1		inconclusive: 29.1 µM [inhibitor, single point]
O=C(Cn1cc(C(F)(F)F)ccc1=O)N/N=C/c1ccc(Cl)cc1		inconclusive: 11.2 µM [inhibitor, partial curve, poor fit]
COc1ccc(Nc2c3c(nc4nncn24)CCC3)cc1Cl		inconclusive: 7.08 µM [inhibitor, partial curve, poor fit]
c1csc(COc2ccccc2CNC2CCCCC2)c1		inconclusive: 35.5 µM [inhibitor, single point]
CCn1c(CC(=O)Nc2ccccc2C)nnc1SCC(=O)NC1CCCC1	inactive: -7% [at 46.1 µM]	
CCOc1ccc(CNC(=S)NCc2ccc(OCC)cc2)cc1	inactive: -22.4%	

Structure (SMILES)	activity change, negative = inhibition	Potency
CCOc1cc(/C=N/NC(=O)c2ccc3c(c2)OCCO3)cc(Br)c1O		inconclusive: 4.47 µM [activator, single point]
COC(=O)CCCNC(=O)c1ccccn1		inconclusive: 8.91 µM [activator, partial curve, poor fit]
CN(C)CCNc1ccc2ncn3c4ccc(O)cc4c(=O)c1c23		inconclusive: 1.58 µM [inhibitor, partial curve, poor fit]
CC(=O)/C(=N/Nc1ccccc1)Sc1nnc(CCc2ccccc2)n1-c1ccccc1		inconclusive: 12.6 µM [inhibitor, partial curve, poor fit]
O=c1c2ccccc2nc(N2CCN(c3cccc(Cl)c3)CC2)n1-c1ccccc1		inconclusive: 22.4 µM [inhibitor, single point]
COc1cc(NC(=S)NCc2ccco2)cc(OC)c1OC	inactive: 12.2%	
CCCC(=O)N1CCCC(c2nc(-c3cccc(OC)c3)no2)C1 (stereo not given)		inconclusive: 29.1 µM [inhibitor, single point]
COc1ccc(CC(=O)Nc2nc(-c3ccc(F)c(F)c3)cs2)cc1		inconclusive: 5.62 µM [inhibitor, partial curve, poor fit]
CC1=C(C(=O)Nc2ccccc2)C(c2ccco2)NC(=S)N1 (stereo not given)		inconclusive: 2.59 µM [activator, full curve, poor fit]
O=C1C(=O)N(c2cccc(Cl)c2)C(c2ccccc2[N+](=O)[O-])/C1=C(\O)c1ccccc1 (stereo not given)	inactive: -17.7%	
Cn1ccnc1SCc1cccc([N+](=O)[O-])c1	inactive: -2.3% [at 46.1 µM]	
COC(=O)c1ccc(C(=O)OCc2nc3cc4ccccc4cc3[nH]2)cc1	inactive: 18.4%	
CC(C)CNC(=O)NC(=O)COC(=O)COc1ccc(Cl)cc1Cl		inconclusive: 12.6 µM [activator, partial curve, poor fit]
Cc1ccccc1C(=O)N1CCC(C(=O)Nc2nc3ccc(F)cc3s2)CC1	inactive: -9.06%	
Cc1cc(-c2nnc(SCCC(=O)Nc3ccccc3)o2)no1	inactive: -5.34%	
O=C(COc1coc(CN2CCc3ccccc3C2)cc1=O)Nc1ccc([N+](=O)[O-])cc1	inactive: 5.09%	
CC(=O)Nc1ccccc1C(=O)C(=O)Nc1ccccc1	inactive: 4.85%	
CCOC(=O)C1(CCc2ccccc2)CCN(C(=O)CN2C(=O)CSC2=O)CC1		inconclusive: 10 µM [activator, partial curve, poor fit]
C[C@H]1c2cccc(O)c2C(O)=C2C(=O)[C@]3(O)C(O)=C(C(N)=O)C(=O)[C@@H](N(C)C)[C@@H]3[C@@H](O)[C@@H]21	inactive: 11.1%	
CCc1cc(=O)[nH]c(-n2[nH]c(-c3ccccc3)cc2=O)n1	inactive: 8.23%	
Cc1ccc(S(=O)(=O)N2CCN(C(=O)Cn3c(=O)cnc4ccccc43)CC2)c(C)c1		inconclusive: 31.6 µM [inhibitor, single point]
O=S(=O)(c1ccc(Oc2ccc(Cl)cc2)nc1)N1CCOCC1		inconclusive: 5.01 µM [inhibitor, full curve]
CC(C)Oc1ccc(-c2nc(NCC3CCCO3)c3ccccc3n2)cc1 (stereo not given)		inconclusive: 35.5 µM [inhibitor, single point]
O=C(O)c1cccc(Nc2ccnc(Nc3cccc(C(=O)O)c3)n2)c1		inconclusive: 1.78 µM [inhibitor, full curve, poor fit]

In the list so far, these have a furan ring, fused or not.
Structure (SMILES)	activity change, negative = inhibition	Potency
Cc1noc(/C=C/c2ccco2)c1S(=O)(=O)N1CCC(C(=O)N2CCc3ccccc3C2)CC1		inconclusive: 29.1 µM [inhibitor, single point]
COc1cc(NC(=S)NCc2ccco2)cc(OC)c1OC	inactive: 12.2%	
CC1=C(C(=O)Nc2ccccc2)C(c2ccco2)NC(=S)N1 (stereo not given)		inconclusive: 2.59 µM [activator, full curve, poor fit]

Following part.

Structure (SMILES)	activity change, negative = inhibition	Potency
Cc1ccc2nc(=O)c(NNc3ccccc3)cnc2c1	inactive: -16.7%	
CCCCOC(=O)c1ccc(NC(=O)/C(C#N)=C/c2ccc(C)o2)cc1	inactive: -6.67% [at 46.1 µM]	
C/C(=N\NC(=O)c1ccc(Cn2cc(Br)cn2)o1)c1ccc(NC(=O)c2ccoc2C)cc1	inactive: -24.7%	
COCCOC(=O)c1c(NC(=O)CNC2CCCc3ccccc32)sc(C(N)=O)c1C (stereo not given)		inconclusive: 3.16 µM [inhibitor, single point]
Nc1cccc(Nc2nc(OC(C(F)(F)F)C(F)(F)F)nc(OC(C(F)(F)F)C(F)(F)F)n2)c1		inconclusive: 11.2 µM [inhibitor, partial curve, poor fit]
Cc1ccc(C(=O)CC2(O)C(=O)N(Cc3ccccc3)c3ccc(Br)cc32)cc1 (stereo not given)		inconclusive: 35.5 µM [inhibitor, single point]
CCOC(=O)c1c(C)[nH]c(-c2csc(N)n2)c1C		inconclusive: 1.41 µM [inhibitor, full curve]
O=C(c1ccc(N2CCN(C3CC(=O)N(Cc4cccs4)C3=O)CC2)cc1)c1cccnc1 (stereo not given)		inconclusive: 3.98 µM [inhibitor, single point]
Cc1ccc(-c2[nH]ncc2/C=C(\C#N)C(=O)NC2CCCCC2)cc1		inconclusive: 9.2 µM [inhibitor, partial curve]
O=C1CCCN2N=C(SCC(=O)Nc3cccc(F)c3)SC2=N1	inactive: -16.2% [at 46.1 µM]	
Cc1cc(OCC(=O)N(C(C)C)C(C)C)ccc1Cl	inactive: -26.4% [at 46.1 µM]	
COc1ccc(CCCc2nnc(SCc3nc4ccccc4c(=O)[nH]3)n2C)cc1C	inactive: -3.99%	
Cc1cc(C)c(S(N)(=O)=O)c(C)c1-n1cnnn1		inconclusive: 0.146 µM [inhibitor, full curve, poor fit]
O=C(NC(=S)N1CCN(C/C=C/c2ccccc2)CC1)c1cccnc1		inconclusive: 0.708 µM [inhibitor, partial curve, poor fit]
COc1cccc(-n2c(O)c(C=NCc3ccc4c(c3)OCO4)c(=O)[nH]c2=O)c1	inactive: -4.17%	
Cc1ccc(C(=O)Nc2nc(C)c(C)s2)o1		inconclusive: 20.6 µM [inhibitor, partial curve, poor fit]
Cc1cc(O)c(C(C)C)cc1N=Nc1ccccc1C(=O)O	inactive: 11.1%	
Cc1ccc(C(=O)c2cc([N+](=O)[O-])ccc2N2CCN(C)CC2)cc1		inconclusive: 0.631 µM [inhibitor, full curve]
CCOc1ccc(S(=O)(=O)N2CCN(c3ccc(C)cc3C)CC2)c2ccccc12		inconclusive: 3.55 µM [inhibitor, single point]
COc1cccc(CSc2nc(-c3ccccc3OC)nc3c2Cc2c(CO)cnc(C)c2O3)c1		inconclusive: 5.01 µM [inhibitor, full curve]
Cn1c(=O)c2c(nc(N3CCN(c4ccccn4)CC3)n2Cc2ccc(Cl)cc2Cl)n(C)c1=O	inactive: 7.74%	
O=C(NCCCc1ccccc1)c1cnc2n(c1=O)CCS2		inconclusive: 29.1 µM [activator, single point]
